Reference: article PMC2684557
These are yes or no findings as the source states them, for the method shown. Binding seen in cells or lysates may run through a third protein. Some entries that bind do so weakly or less than the wild type.

Protein sequences, listed by entry. Tags and fused reporters are not part of them. Residues count along the entry.
UniProt P31039, residues 44-665: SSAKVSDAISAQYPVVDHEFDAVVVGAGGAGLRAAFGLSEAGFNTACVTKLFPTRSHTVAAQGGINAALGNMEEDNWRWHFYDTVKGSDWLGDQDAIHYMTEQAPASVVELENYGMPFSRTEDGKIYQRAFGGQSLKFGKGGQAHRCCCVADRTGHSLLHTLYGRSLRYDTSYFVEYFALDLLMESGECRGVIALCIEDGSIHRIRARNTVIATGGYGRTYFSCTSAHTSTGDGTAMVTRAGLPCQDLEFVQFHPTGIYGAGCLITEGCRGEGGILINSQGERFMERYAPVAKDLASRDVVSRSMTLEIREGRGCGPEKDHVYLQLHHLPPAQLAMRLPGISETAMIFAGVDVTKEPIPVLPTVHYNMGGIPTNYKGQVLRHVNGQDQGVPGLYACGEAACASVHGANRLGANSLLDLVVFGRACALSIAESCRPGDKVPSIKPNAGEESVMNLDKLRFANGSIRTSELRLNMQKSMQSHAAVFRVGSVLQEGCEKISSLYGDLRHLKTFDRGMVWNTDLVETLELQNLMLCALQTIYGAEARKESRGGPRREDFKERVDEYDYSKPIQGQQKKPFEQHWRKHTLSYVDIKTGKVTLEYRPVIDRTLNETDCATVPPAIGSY
UniProt P00829, residues 47-528: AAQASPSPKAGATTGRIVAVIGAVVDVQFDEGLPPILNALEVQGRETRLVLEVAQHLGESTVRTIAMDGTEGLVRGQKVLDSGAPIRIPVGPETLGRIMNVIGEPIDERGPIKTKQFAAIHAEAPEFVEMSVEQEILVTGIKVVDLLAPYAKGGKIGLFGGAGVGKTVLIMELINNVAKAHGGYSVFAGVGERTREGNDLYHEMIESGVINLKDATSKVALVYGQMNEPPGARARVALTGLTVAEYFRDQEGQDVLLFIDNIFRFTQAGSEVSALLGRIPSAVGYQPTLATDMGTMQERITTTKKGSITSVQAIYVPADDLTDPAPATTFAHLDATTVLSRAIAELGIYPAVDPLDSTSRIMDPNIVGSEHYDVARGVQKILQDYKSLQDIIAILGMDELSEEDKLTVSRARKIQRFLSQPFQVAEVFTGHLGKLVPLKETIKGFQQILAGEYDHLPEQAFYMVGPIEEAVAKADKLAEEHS
UniProt Q02375, residues 43-175: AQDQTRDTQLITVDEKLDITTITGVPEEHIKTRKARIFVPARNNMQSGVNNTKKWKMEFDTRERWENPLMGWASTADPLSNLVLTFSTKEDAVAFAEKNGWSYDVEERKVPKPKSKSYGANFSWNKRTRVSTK
UniProt P99999: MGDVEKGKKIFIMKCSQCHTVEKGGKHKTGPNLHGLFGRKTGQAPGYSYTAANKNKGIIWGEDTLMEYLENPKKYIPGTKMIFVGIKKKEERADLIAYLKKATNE

Columns and labels:
[1] = target: complex II 70 kDa subunit, bovine (bovine (endogenous in bovine liver)) (UniProt P31039); assay: co-IP; bovine liver tissue supernatant (500 ug) incubated overnight at 4 C with antibodies to specific subunits of complexes I-V conjugated to protein-G agarose beads; washed 4X with PBS 1 mM n-dodecyl-beta-D-maltopyranoside; eluted with 0.2 M glycine pH 2.5; blot probed with MsrA antibody
[2] = target: complex IV cytochrome c oxidase subunit I (57 kDa), bovine (bovine (endogenous in bovine liver)) (UniProt P00396); assay: as above
[3] = target: complex V ATP synthase subunit beta (56 kDa), bovine (bovine (endogenous in bovine liver)) (UniProt P00829); assay: as above
[4] = target: NDUFS4 (18 kDa), subunit of mitochondrial complex I, bovine (bovine (endogenous in bovine liver)) (UniProt Q02375); assay: as above
[5] = target: T1, complex III core I subunit (48 kDa), bovine (bovine (endogenous in bovine liver)) (UniProt P31800); assay: as above
T1 sequence: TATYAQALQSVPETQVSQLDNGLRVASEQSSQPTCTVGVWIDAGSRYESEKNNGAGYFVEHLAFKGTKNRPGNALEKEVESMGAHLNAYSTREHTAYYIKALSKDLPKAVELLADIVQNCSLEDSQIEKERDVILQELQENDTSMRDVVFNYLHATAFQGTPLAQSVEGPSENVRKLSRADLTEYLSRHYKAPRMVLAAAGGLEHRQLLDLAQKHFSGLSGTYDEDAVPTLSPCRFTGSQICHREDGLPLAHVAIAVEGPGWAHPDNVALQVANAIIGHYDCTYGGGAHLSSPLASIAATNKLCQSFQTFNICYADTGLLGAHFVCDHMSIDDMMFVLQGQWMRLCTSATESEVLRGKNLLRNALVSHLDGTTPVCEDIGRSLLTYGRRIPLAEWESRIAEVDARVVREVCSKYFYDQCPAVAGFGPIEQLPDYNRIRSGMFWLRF

[6] = target: cytochrome c, human lens epithelial cell mitochondria (human (endogenous in HLE B3)) (UniProt P99999); assay: co-IP; HLE B3 mitochondrial protein (500 ug) incubated with 20 ug anti-cytochrome c antibody for 1 h at 4 C, then with Protein A-agarose beads overnight at 4 C; washed 3 times in PBS 1 mM n-DMP; eluted by boiling in SDS loading buffer; blot probed with MsrA antibody

Measured: binding

B1: methionine sulfoxide reductase A (MsrA), bovine liver (enzyme, UniProt P54149 21-233)
chain: MGDSAAKIVSPQEALPGRKEPLVVAAKHHVNGNRTVEPFPEGTQMAVFGMGCFWGAERKFWTLKGVYSTQVGFAGGYTPNPTYKEVCSGKTGHAEVVRVVFQPEHISFEELLKVFWENHDPTQGMRQGNDHGSQYRSAIYPTSAEHVGAALKSKEDYQKVLSEHGFGLITTDIREGQTFYYAEDYHQQYLSKDPDGYCGLGGTGVSCPLGIKK
not listed: [6]
binds: all other assays above

B2: methionine sulfoxide reductase A (MsrA), human lens epithelial cell mitochondria (enzyme, UniProt Q9UJ68 24-235)
chain: GNSASNIVSPQEALPGRKEQTPVAAKHHVNGNRTVEPFPEGTQMAVFGMGCFWGAERKFWVLKGVYSTQVGFAGGYTSNPTYKEVCSEKTGHAEVVRVVYQPEHMSFEELLKVFWENHDPTQGMRQGNDHGTQYRSAIYPTSAKQMEAALSSKENYQKVLSEHGFGPITTDIREGQTFYYAEDYHQQYLSKNPNGYCGLGGTGVSCPVGIKK
binds: [6]
